Values from PubChem BioAssay AID720505 (Drosophila RNAi Screening Center, 2013).
The deposit covers about 20,000 reagents; this is a random part of those with a known target gene and a result. Of all reagents, about 2,100 (10%) were called active. 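Raw plate signals without normalisation; calls rest on control-based scores that were not deposited; replicate 2 separates called from uncalled poorly.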 Unmarked entries are inactive. The numbers tell different reagents against one gene apart. The record does not give: the amount of reagent, the time to read-out.

Assay: 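Fly regulators or components of the CRAC channel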 (primary screen)
Cell system: Drosophila S2R+ cells
Reagents: long dsRNA against Drosophila genes
Challenge: thapsigargin (2 µM) in calcium-free buffer to empty internal stores, then 2 mM calcium added back
Measured: 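Fluo-4 signal in 384-well plates read on a FLIPR after thapsigargin (2 µM, calcium-free) store depletion and 2 mM calcium add-back; unnormalised mean endpoint per well; screen run twice, selected wells retested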
Scale: calcium signal and retest calcium signal: higher = more calcium entry after store depletion
Active means: 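About 1500 genes called as lowering calcium entry, by varying amounts, judged against per-plate control wells with STIM1 as positive and Rho1 as negative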
Calls: active = called as lowering calcium entry; inactive = not called

no.	predicted target	reagent	calcium signal, replicate 1	calcium signal, replicate 2	retest calcium signal, replicate 1	retest calcium signal, replicate 2
1	Vm32E (GeneID 34558)	1	165	108		
2	Ns4 (GeneID 35338)	1	74.1	79.4		
3	Efa6 (GeneID 42665)	1	60.3 (active)	134		
4	Efa6 (GeneID 42665)	2	99.5	83.9		
5	brv3 (GeneID 31246)	1	91.6	136		
6	Myb (GeneID 32543)	1	182	105		
7	caup (GeneID 39440)	1	91.1	90.3		
8	caup (GeneID 39440)	2	118	157		
9	CG4004 (GeneID 32226)	1	179	117		
10	CG4004 (GeneID 32226)	2	61.4 (active)	88.1		
11	p38c (GeneID 2768679)	1	132	156		
12	net (GeneID 45339)	1	169	119		
13	CG7514 (GeneID 38571)	1	105	71.1		
14	CG10068 (GeneID 40852)	1	106	101		
15	Tlk (GeneID 318206)	1	153	103		
16	Tlk (GeneID 318206)	2	146	80.3		
17	Tlk (GeneID 318206)	3	146	188		
18	Tlk (GeneID 318206)	4	110 (active)	110		
19	Tlk (GeneID 318206)	5	93.8	167		
20	Tlk (GeneID 318206)	6	65.9	79.1		
21	CG32100 (GeneID 39400)	1	113	83.1		
22	CG32100 (GeneID 39400)	2	117	82.5		
23	CG34133 (GeneID 318566)	1	108	83.5		
24	CG34133 (GeneID 318566)	2	76.2	249		
25	CG6688 (GeneID 42716)	1	285	240		
26	lectin-37Da (GeneID 3346222)	1	157	88.3	119	112
27	lectin-37Da (GeneID 3346222)	2	104	172		
28	CG15617 (GeneID 36871)	1	168	132		
29	CG31326 (GeneID 41728)	1	89.2	104		
30	CG32712 (GeneID 318165)	1	137	89.2		
31	Dh31 (GeneID 34181)	1	198	166		
32	qkr54B (GeneID 36966)	1	175	149		
33	CG7889 (GeneID 32916)	1	168	155	96.9	102
34	Proc (GeneID 250710)	1	104	151		
35	Proc (GeneID 250710)	2	100	126		
